{"sequences": {"note": "Chains of the proteins cited; added tags and fusions are not shown.", "UniProt Q00839": "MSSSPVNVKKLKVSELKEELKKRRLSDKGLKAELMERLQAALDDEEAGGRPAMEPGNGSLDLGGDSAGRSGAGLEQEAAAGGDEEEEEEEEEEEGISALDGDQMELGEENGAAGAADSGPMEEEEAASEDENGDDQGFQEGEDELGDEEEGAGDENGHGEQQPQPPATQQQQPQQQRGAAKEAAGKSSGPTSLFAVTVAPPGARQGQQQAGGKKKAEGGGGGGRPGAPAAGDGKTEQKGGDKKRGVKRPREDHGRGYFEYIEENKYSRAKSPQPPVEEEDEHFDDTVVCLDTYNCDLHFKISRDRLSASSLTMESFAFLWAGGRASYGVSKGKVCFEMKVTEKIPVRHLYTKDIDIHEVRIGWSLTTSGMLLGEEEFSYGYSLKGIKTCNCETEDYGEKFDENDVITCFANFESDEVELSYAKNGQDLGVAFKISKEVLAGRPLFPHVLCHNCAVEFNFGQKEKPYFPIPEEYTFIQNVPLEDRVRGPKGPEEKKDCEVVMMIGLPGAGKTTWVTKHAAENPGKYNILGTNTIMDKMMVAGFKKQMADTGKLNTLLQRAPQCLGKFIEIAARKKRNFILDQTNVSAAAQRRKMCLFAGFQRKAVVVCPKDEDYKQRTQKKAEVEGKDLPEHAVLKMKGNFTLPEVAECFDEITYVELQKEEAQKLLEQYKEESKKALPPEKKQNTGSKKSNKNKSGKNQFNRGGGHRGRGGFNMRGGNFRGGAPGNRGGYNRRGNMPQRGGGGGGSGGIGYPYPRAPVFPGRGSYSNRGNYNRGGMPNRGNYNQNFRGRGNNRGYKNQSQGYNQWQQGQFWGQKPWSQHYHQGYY"}, "source": "paper PMC11250566", "binders": {"B1": {"name": "DGCR8 in 293 cells (protein, UniProt Q8WYQ5 1-773)", "chain": "METDESPSPLPCGPAGEAVMESRARPFQALPREQSPPPPLQTSSGAEVMDVGSGGDGQSELPAEDPFNFYGASLLSKGSFSKGRLLIDPNCSGHSPRTARHAPAVRKFSPDLKLLKDVKISVSFTESCRSKDRKVLYTGAERDVRAECGLLLSPVSGDVHACPFGGSVGDGVGIGGESADKKDEENELDQEKRVEYAVLDELEDFTDNLELDEEGAGGFTAKAIVQRDRVDEEALNFPYEDDFDNDVDALLEEGLCAPKKRRTEEKYGGDSDHPSDGETSVQPMMTKIKTVLKSRGRPPTEPLPDGWIMTFHNSGVPVYLHRESRVVTWSRPYFLGTGSIRKHDPPLSSIPCLHYKKMKDNEEREQSSDLTPSGDVSPVKPLSRSAELEFPLDEPDSMGADPGPPDEKDPLGAEAAPGALGQVKAKVEVCKDESVDLEEFRSYLEKRFDFEQVTVKKFRTWAERRQFNREMKRKQAESERPILPANQKLITLSVQDAPTKKEFVINPNGKSEVCILHEYMQRVLKVRPVYNFFECENPSEPFGASVTIDGVTYGSGTASSKKLAKNKAARATLEILIPDFVKQTSEEKPKDSEELEYFNHISIEDSRVYELTSKAGLLSPYQILHECLKRNHGMGDTSIKFEVVPGKNQKSEYVMACGKHTVRGWCKNKRVGKQLASQKILQLLHPHVKNWGSLLRMYGRESSKMVKQETSDKSVIELQQYAKKNKPNLHILSKLQEEMKRLAEEREETRKKPKMSIVASAQPGGEPLCTVDV"}}, "target": "hnRNP U in 293 cells (UniProt Q00839)", "experiment": "co-IP; reciprocal immunoprecipitation in 293 cells, with or without RNase A; immunoblot", "note": "No constants are given. Whether binding was seen depends on the method and setting. In cells and extracts the contact can be indirect. Some binding calls cover weakened binding; strength is not graded here."}
{"binder": "B1", "values": [{"measurement": "binding", "result": "binds"}]}
